Reference: PubChem BioAssay AID248 (DTP/NCI, 2004)
The list shows only some results of the screen, not a fair sample: it gathers tests that were run many times, whatever their T/C, doses with no T/C, and many T/C values between a quarter and a half above the control. Further doses and runs are listed elsewhere. T/C is the treated group as % of the vehicle group. Some doses have a count of surviving animals in place of a T/C: the source holds a T/C of zero for them, seemingly a mark for toxic or unscored doses. Some doses without a T/C left all or most animals alive at the check, yet need not have been tolerated: the source hardly ever lists a survival T/C far under the control, and the zero likely stands for such cases as well. Survivors were counted at the toxicity check, usually on the fifth day, unless a day is given; later deaths do not show. Schedule codes are those of the source, taken here to give the interval after Q, in days (D) or hours (H), and the number of doses after X. Some entries hold several experiments; their values stand side by side, smallest first. Some schedules carry Z or #; the key to these is not given. Some molecules as drawn cover several salts, stereoisomers or complexes of the source; a dose is that of the sample tested. For survival time, the PubChem record calls one and a half times the control and up active, and a quarter to a half above the control has no call in these data; cut-offs in other NCI protocols can differ.

Test system: L1210 leukemia ip in BDF1 mice, survival T/C
Assay: NCI In Vivo Anticancer Drug Screen. Data for tumor model L1210 Leukemia (intraperitoneal) in B6D2F1 (BDF1) mice
Settings: T/C endpoint: mean survival time, higher T/C = longer survival
[1] = dose: 100.0 mg/kg/injection, schedule: Q04DX002 (ip), vehicle: Klucel (hydroxypropylcellulose) (HPC)
[2] = dose: 400.0 mg/kg/injection, schedule: Q01DX001 (ip), vehicle: saline
[3] = dose: 400.0 mg/kg/injection, schedule: Q04DX002 (ip), vehicle: saline
[4] = dose: 200.0 mg/kg/injection, schedule: Q01DX001 (ip), vehicle: saline
[5] = dose: 400.0 mg/kg/injection, schedule: Q04DX003 (ip), vehicle: gum acacia
[6] = dose: 400.0 mg/kg/injection, schedule: Q01DX009 (ip), vehicle: saline with Tween-80
[7] = dose: 400.0 mg/kg/injection, schedule: Q04DX003 (ip), vehicle: Klucel (hydroxypropylcellulose) (HPC)
[8] = dose: 200.0 mg/kg/injection, schedule: Q04DX003 (ip), vehicle: saline
[9] = dose: 400.0 mg/kg/injection, schedule: Q01DX001 (ip), vehicle: other

**Q.** Which results are given for `CCCCCCCCCN1CCCC(C)C1` (stereo unspecified)?
**A.** survivor count [1]: 0 of 3; survivor count (dose: 200.0 mg/kg/injection, schedule: Q04DX002 (ip), vehicle: Klucel (hydroxypropylcellulose) (HPC)): 0 of 3; survivor count (dose: 400.0 mg/kg/injection, schedule: Q04DX002 (ip), vehicle: Klucel (hydroxypropylcellulose) (HPC)): 0 of 3

**Q.** Which survivor count (dose: 400.0 mg/kg/injection, schedule: Q01DX009 (ip), vehicle: Klucel (hydroxypropylcellulose) (HPC)) does the source give for `O=C(O)/C(=C\c1ccc([N+](=O)[O-])cc1)c1cccc2ccccc12` here?
**A.** The survivor count was 0 of 6.

**Q.** With `O=C(O)c1ccc(COc2ccc([N+](=O)[O-])cc2Cl)cc1` as the compound, how does the survivor count (dose: 400.0 mg/kg/injection, schedule: Q01DX009 (ip), vehicle: saline sonified) read?
**A.** Its survivor count is 5 of 6.

**Q.** How did the survivor count (dose: 150.0 mg/kg/injection, schedule: Q01DX001 (ip), vehicle: other) turn out when `CCC1CCC(NC(=O)NCCF)CC1` (stereo unspecified) was run?
**A.** The survivor count was 0 of 6.

**Q.** What about the survivor count (dose: 300.0 mg/kg/injection, schedule: Q01DX001 (ip), vehicle: other) of the same compound?
**A.** Its survivor count is 0 of 6.

**Q.** For `C#CCOCCC(C(=O)O)C(=O)O`, which survivor count (dose: 400.0 mg/kg/injection, schedule: Q01DX009 (ip), vehicle: acetone) is on record?
**A.** The survivor count was 2 of 6.

**Q.** How did the survivor count (dose: 25.0 mg/kg/injection, schedule: Q04DX002 (ip), vehicle: saline) turn out when `C1CCC2CCCCC2C1` (stereo unspecified) was run?
**A.** The survivor count was 3 of 3.

**Q.** `CSc1ncc(CO)c(N2CC2)n1` was tested. Which survivor count (dose: 200.0 mg/kg/injection, schedule: Q01DX Z (ip), vehicle: methylcellulose (MC)) did it give?
**A.** Its survivor count is 3 of 6.

**Q.** `O=C1NC(=S)S/C1=C\c1ccc(F)cc1` was tested. Which survivor count (dose: 100.0 mg/kg/injection, schedule: Q04DX003 (ip), vehicle: saline with Tween-80) did it give?
**A.** Its survivor count is 0 of 3.

**Q.** And the survivor count (dose: 200.0 mg/kg/injection, schedule: Q04DX003 (ip), vehicle: saline with Tween-80)?
**A.** Its survivor count is 0 of 3.

**Q.** And the survivor count (dose: 400.0 mg/kg/injection, schedule: Q04DX003 (ip), vehicle: saline with Tween-80)?
**A.** The survivor count was 0 of 3.

**Q.** For `NCCCOc1ccc([N+](=O)[O-])cc1`, which survivor count [2] is on record?
**A.** Its survivor count is 0 of 6.

**Q.** And the survivor count [3]?
**A.** Its survivor count is 0 of 6 and 1 of 3.

**Q.** With `O=S(=O)(Sc1ccc(Cl)cc1)c1ccc(Cl)cc1` as the compound, how does the survivor count (dose: 100.0 mg/kg/injection, schedule: Q04DX002 (ip), vehicle: gum acacia) read?
**A.** The survivor count was 3 of 3.

**Q.** `O=c1sc2ccccc2n1CCSCCn1c(=S)sc2ccccc21` was tested. Which survivor count [4] did it give?
**A.** The survivor count was 6 of 6.

**Q.** Which survivor count [3] does the source give for `N#CC(C#N)N=O` (tested in a mixture with another compound) here?
**A.** The survivor count was 0 of 3.

**Q.** For `c1ccc(C[n+]2cccc3ccccc32)cc1`, which survivor count (dose: 100.0 mg/kg/injection, schedule: Q01DX001 (ip), vehicle: saline with Tween-80) is on record?
**A.** The survivor count was 0 of 6.

**Q.** What about the survivor count (dose: 100.0 mg/kg/injection, schedule: Q04DX002 (ip), vehicle: saline) of the same compound?
**A.** Its survivor count is 1 of 3.

**Q.** And the survivor count (dose: 200.0 mg/kg/injection, schedule: Q01DX001 (ip), vehicle: saline with Tween-80)?
**A.** The survivor count was 0 of 6.

**Q.** And the survivor count (dose: 200.0 mg/kg/injection, schedule: Q04DX002 (ip), vehicle: saline)?
**A.** Its survivor count is 0 of 3.

**Q.** And the survivor count (dose: 400.0 mg/kg/injection, schedule: Q01DX001 (ip), vehicle: saline with Tween-80)?
**A.** The survivor count was 0 of 6.

**Q.** And the survivor count [3]?
**A.** The survivor count was 0 of 3.

**Q.** For `CCN(CC)CCN(C)CC(=O)Nc1cccc(Cl)c1C`, which survivor count (dose: 225.0 mg/kg/injection, schedule: Q01DX009 (ip), vehicle: saline) is on record?
**A.** The survivor count was 0 of 6.

**Q.** And the survivor count (dose: 300.0 mg/kg/injection, schedule: Q01DX001 (ip), vehicle: saline)?
**A.** Its survivor count is 0 of 6.

**Q.** How did the survivor count (dose: 12.5 mg/kg/injection, schedule: Q01DX009 (ip), vehicle: gum acacia) turn out when `CNC(=O)OCC1=CC(=O)C=C(OC)C1=O` was run?
**A.** Its survivor count is 6 of 6.

**Q.** And the survivor count (dose: 25.0 mg/kg/injection, schedule: Q01DX009 (ip), vehicle: gum acacia)?
**A.** The survivor count was 0 of 6.

**Q.** And the survivor count (dose: 50.0 mg/kg/injection, schedule: Q04DX003 (ip), vehicle: gum acacia)?
**A.** The survivor count was 0 of 6.

**Q.** What about the survivor count (dose: 100.0 mg/kg/injection, schedule: Q04DX003 (ip), vehicle: gum acacia) of the same compound?
**A.** Its survivor count is 0 of 6.

**Q.** What about the survivor count (dose: 200.0 mg/kg/injection, schedule: Q04DX003 (ip), vehicle: gum acacia) of the same compound?
**A.** Its survivor count is 2 of 6.

**Q.** And the survivor count [5]?
**A.** Its survivor count is 1 of 6.

**Q.** With `CN=C(c1ccc(NC(=O)c2cc(N)cc(C(=O)Nc3ccc(C(=NC)N(C)C)cc3)c2)cc1)N(C)C` as the compound, how does the survivor count (dose: 60.0 mg/kg/injection, schedule: Q01DX Z (ip), vehicle: carboxymethylcellulose (CMC)) read?
**A.** The survivor count was 0 of 6.

**Q.** And the survivor count (dose: 120.0 mg/kg/injection, schedule: Q01DX Z (ip), vehicle: carboxymethylcellulose (CMC))?
**A.** The survivor count was 0 of 6.

**Q.** With `FC(F)(F)C(Cl)Br` (stereo unspecified) as the compound, how does the survivor count [4] read?
**A.** The survivor count was 3 of 6.

**Q.** What about the survivor count [2] of the same compound?
**A.** Its survivor count is 3 of 6.

**Q.** What about the survivor count (dose: 4000.0 mg/kg/injection, schedule: Q05DX002 (ip), vehicle: water) of the same compound?
**A.** Its survivor count is 1 of 10.

**Q.** With `COc1cc2c(cc1OC)C1CC(=O)CCN1CC2` (stereo unspecified) as the compound, how does the T/C (dose: 50.0 mg/kg/injection, schedule: Q01DX009 (ip), vehicle: Klucel (hydroxypropylcellulose) (HPC)) read?
**A.** Its T/C is 130 % of control.

**Q.** What about the survivor count (dose: 100.0 mg/kg/injection, schedule: Q01DX009 (ip), vehicle: Klucel (hydroxypropylcellulose) (HPC)) of the same compound?
**A.** Its survivor count is 3 of 3.

**Q.** For `CCOC(=O)CNC(=O)OCCSc1ccc(C)cc1`, which survivor count [6] is on record?
**A.** The survivor count was 1 of 6.

**Q.** `Cc1cc(=O)[nH]c(N/N=C/c2ccco2)n1` was tested. Which survivor count [7] did it give?
**A.** The survivor count was 1 of 6.

**Q.** For `C#CCC#Cc1ccccc1`, which survivor count [6] is on record?
**A.** The survivor count was 2 of 6.

**Q.** Which survivor count (dose: 100.0 mg/kg/injection, schedule: Q04DX003 (ip), vehicle: saline) does the source give for `Cc1ccc(C2CC3c4ccccc4C2C2CCCCN32)cc1` (stereo unspecified) here?
**A.** Its survivor count is 0 of 6.

**Q.** And the survivor count [8]?
**A.** Its survivor count is 0 of 6.

**Q.** And the survivor count (dose: 400.0 mg/kg/injection, schedule: Q04DX003 (ip), vehicle: saline)?
**A.** Its survivor count is 0 of 6.

**Q.** How did the survivor count [5] turn out when `O=C(O)CCCc1cccc2ccccc12` was run?
**A.** The survivor count was 1 of 6.

**Q.** What does the source list for `CCC(=O)c1cc2c(c3c1CCCC3)CCCC2`?
**A.** survivor count (dose: 50.0 mg/kg/injection, schedule: Q01DX009 (ip), vehicle: other): 3 of 3; survivor count (dose: 100.0 mg/kg/injection, schedule: Q01DX009 (ip), vehicle: other): 3 of 3

**Q.** For `O=C1C=C(c2c(-c3ccccc3)[nH]c3ccccc23)C(=O)c2ccccc21`, which survivor count [9] is on record?
**A.** Its survivor count is 2 of 4.

**Q.** For `CCC(C)(C)C(=O)OCc1ccccc1`, which T/C [1] is on record?
**A.** Its T/C is 125 % of control.

**Q.** `CCOc1cc([N+](=O)[O-])c(OCC)cc1C#N` was tested. Which survivor count (dose: 40.0 mg/kg/injection, schedule: Q01DX001 (ip), vehicle: other) did it give?
**A.** Its survivor count is 2 of 4.

**Q.** And the survivor count (dose: 80.0 mg/kg/injection, schedule: Q01DX001 (ip), vehicle: other)?
**A.** Its survivor count is 0 of 4.

**Q.** And the survivor count (dose: 100.0 mg/kg/injection, schedule: Q01DX001 (ip), vehicle: other)?
**A.** The survivor count was 0 of 4.

**Q.** And the survivor count (dose: 200.0 mg/kg/injection, schedule: Q01DX001 (ip), vehicle: other)?
**A.** Its survivor count is 0 of 4.

**Q.** And the survivor count [9]?
**A.** Its survivor count is 0 of 4.

**Q.** Which results are given for `COC(=O)/C=C/CBr`?
**A.** survivor count (dose: 20.0 mg/kg/injection, schedule: Q01DX001 (ip), vehicle: carboxymethylcellulose (CMC)): 0 of 4; survivor count (dose: 40.0 mg/kg/injection, schedule: Q01DX001 (ip), vehicle: carboxymethylcellulose (CMC)): 0 of 4; survivor count (dose: 64.0 mg/kg/injection, schedule: Q01DX015 (ip), vehicle: carboxymethylcellulose (CMC)): 0 of 6; survivor count (dose: 80.0 mg/kg/injection, schedule: Q01DX001 (ip), vehicle: carboxymethylcellulose (CMC)): 0 of 4

**Q.** What does the source list for `c1ccc(-c2nc(-c3ccccn3)nc(-c3ccccn3)n2)nc1`?
**A.** survivor count (dose: 100.0 mg/kg/injection, schedule: Q01DX001 (ip), vehicle: saline): 3 of 6; survivor count [4]: 0 of 6; survivor count [2]: 0 of 6

**Q.** With `Cc1c([N+](=O)[O-])cc(C(C)(C)C)c(OC(=O)c2ccccc2)c1[N+](=O)[O-]` as the compound, how does the survivor count (dose: 400.0 mg/kg/injection, schedule: Q04DX002 (ip), vehicle: saline with Tween-80) read?
**A.** Its survivor count is 3 of 3.

**Q.** `CC1(C)SCC(C(=O)N2CCCC2C(=O)OC2CCCCC2)N1C=O` (stereo unspecified) was tested. Which survivor count [8] did it give?
**A.** Its survivor count is 3 of 4.

**Q.** `O=P(Cc1ccccc1)(Cc1ccccc1)c1ccccc1` was tested. Which survivor count (dose: 200.0 mg/kg/injection, schedule: Q04DX003 (ip), vehicle: Klucel (hydroxypropylcellulose) (HPC)) did it give?
**A.** The survivor count was 6 of 6.

**Q.** What about the survivor count [7] of the same compound?
**A.** The survivor count was 6 of 6.
